Measured values reported in the supplement of paper PMC4604168 (melanoma cell lines).
Some of the results follow. Single values are uncertain, as repeats are few or missing.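 The apoptosis fraction was the count of cleaved-PARP antibody-stained nuclei relative to all DNA-stained nuclei, imaged in 1,536-well plates. Screening doses were set so most cells survived, and baseline and induced cleaved-PARP levels vary greatly across cell lines.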

Assays:
Assay in all cases: cleaved PARP positive nuclei fraction relative to DMSO control; melanoma cells; higher = more apoptosis
Conditions in all cases: library dose: low library concentration; 72 h
MeWo = tested on: MeWo
RPMI7951 = tested on: RPMI7951
RVH-421 = tested on: RVH-421
SkMel28 = tested on: SkMel28
SkMel30 = tested on: SkMel30
SkMel5 = tested on: SkMel5
UACC257 = tested on: UACC257
UACC62 = tested on: UACC62
WM115 = tested on: WM115
WM1716 = tested on: WM1716
WM1745 = tested on: WM1745
WM3526 = tested on: WM3526
WM3619 = tested on: WM3619
WM451Lu = tested on: WM451Lu
SkMel2 = tested on: SkMel2
MZ2-MEL = tested on: MZ2-MEL

Structure (SMILES)	cleaved PARP positive nuclei fraction (MeWo) [%]	cleaved PARP positive nuclei fraction (RPMI7951) [%]	cleaved PARP positive nuclei fraction (RVH-421) [%]	cleaved PARP positive nuclei fraction (SkMel28) [%]	cleaved PARP positive nuclei fraction (SkMel30) [%]	cleaved PARP positive nuclei fraction (SkMel5) [%]	cleaved PARP positive nuclei fraction (UACC257) [%]	cleaved PARP positive nuclei fraction (UACC62) [%]	cleaved PARP positive nuclei fraction (WM115) [%]	cleaved PARP positive nuclei fraction (WM1716) [%]	cleaved PARP positive nuclei fraction (WM1745) [%]	cleaved PARP positive nuclei fraction (WM3526) [%]	cleaved PARP positive nuclei fraction (WM3619) [%]	cleaved PARP positive nuclei fraction (WM451Lu) [%]	cleaved PARP positive nuclei fraction (SkMel2) [%]	cleaved PARP positive nuclei fraction (MZ2-MEL) [%]
Cc1cc(Nc2cc(N3CCN(C)CC3)nc(Sc3ccc(NC(=O)C4CC4)cc3)n2)n[nH]1 [Tozasertib] + Cc1cc(SCc2sc(-c3ccc(C(F)(F)F)c(F)c3)nc2C)ccc1OCC(=O)O [GW0742] (first compound 0.006 µM, partner dose 2 µM)	44	130	57.5	189	87.5	144	93.3	126	158	74	232	51.9	118	59.4		
N.N.[Cl][Pt][Cl] [cisplatin] + O=C(O)c1ccc(-c2c[nH]c3ncc(-c4ccccc4)cc23)cc1C1CCCC1 [GSK650394] (first compound 1.6 µM, partner dose 0.16 µM)	77.6	76.8	52.8	86.5	73.2	194	79.1	73.2	106	85.2	91.1	365	126	493	66.2	
C[C@]12O[C@H](C[C@]1(O)CO)n1c3ccccc3c3c4c(c5c6ccccc6n2c5c31)CNC4=O [Lestaurtinib] + C[C@]1(O)C[C@@H](c2nc(-c3ccc4ccc(-c5ccccc5)nc4c3)c3c(N)nccn32)C1 [OSI906] (first compound 0.004 µM, partner dose 0.4 µM)	48.7	96.6	106	45.5	81.4			129	105	39.7	144	129	81.2	89.3		128
C[C@@H](N)c1ccc(C(=O)Nc2ccnc3[nH]ccc23)cc1 + C[C@]12O[C@H](C[C@]1(O)CO)n1c3ccccc3c3c4c(c5c6ccccc6n2c5c31)CNC4=O [Lestaurtinib] (first compound 0.4 µM, partner dose 0.004 µM)	209	137	143	65.3	64			171	102	98.3	111	47.5	83.1	44.4		342
N.N.[Cl][Pt][Cl] [cisplatin] + CO[C@H]1C[C@@H]2CC[C@@H](C)[C@@](O)(O2)C(=O)C(=O)N2CCCC[C@H]2C(=O)O[C@H]([C@H](C)C[C@@H]2CC[C@@H](OCCO)[C@H](OC)C2)CC(=O)[C@H](C)/C=C(\C)[C@@H](O)[C@@H](OC)C(=O)[C@H](C)C[C@H](C)/C=C/C=C/C=C/1C [everolimus] (first compound 1.6 µM, partner dose 0.02 µM)	112	37.9	126	114	68.5			431	172	93	105	108	122	136		199
C[C@]12O[C@H](C[C@]1(O)CO)n1c3ccccc3c3c4c(c5c6ccccc6n2c5c31)CNC4=O [Lestaurtinib] + CNC(=O)c1cc(Oc2ccc(NC(=O)Nc3ccc(Cl)c(C(F)(F)F)c3)cc2)ccn1 [sorafenib] (first compound 0.004 µM, partner dose 0.4 µM)	111	190	71.2	209	93.3			156	169	163	108	22.8	101	109		131
COc1cc([C@@H]2c3cc4c(cc3[C@@H](O[C@@H]3O[C@@H]5CO[C@@H](C)O[C@H]5[C@H](O)[C@H]3O)[C@H]3COC(=O)[C@H]23)OCO4)cc(OC)c1O [etoposide] + C[C@]12O[C@H](C[C@]1(O)CO)n1c3ccccc3c3c4c(c5c6ccccc6n2c5c31)CNC4=O [Lestaurtinib] (first compound 0.02 µM, partner dose 0.004 µM)	58.4	31.3	206	65.3	79.4			52.1	123	96.7	96.3	38.9	85.1	91.3		160
COc1ccc(C2=N[C@@H](c3ccc(Cl)cc3)[C@@H](c3ccc(Cl)cc3)N2C(=O)N2CCNC(=O)C2)c(OC(C)C)c1 [Nutlin-3] + C[C@]12O[C@H](C[C@]1(O)CO)n1c3ccccc3c3c4c(c5c6ccccc6n2c5c31)CNC4=O [Lestaurtinib] (first compound 0.1 µM, partner dose 0.004 µM)	42.3	86.5	66.5	121	110			159	87.2	135	104	104	98.6	119		85.3
CN1CCN(c2ccc3nc(-c4c(N)c5c(F)cccc5[nH]c4=O)[nH]c3c2)CC1 [Dovitinib] + Cc1cc(SCc2sc(-c3ccc(C(F)(F)F)c(F)c3)nc2C)ccc1OCC(=O)O [GW0742] (first compound 0.1 µM, partner dose 2 µM)	129	68.6	28.2	77.2	69.4	83.1	37.7	150	47.7	43.9	99.4	143	116	48.7	135	
CC(C)C[C@H](NC(=O)[C@H](Cc1ccccc1)NC(=O)c1cnccn1)B(O)O [Bortezomib] + Cc1cc(SCc2sc(-c3ccc(C(F)(F)F)c(F)c3)nc2C)ccc1OCC(=O)O [GW0742] (first compound 0.001 µM, partner dose 2 µM)	100	53.7	109	39.2	29.6	78.9	316	144	59.3	758	109	326	477	72.9	102	
C[C@]12O[C@H](C[C@]1(O)CO)n1c3ccccc3c3c4c(c5c6ccccc6n2c5c31)CNC4=O [Lestaurtinib] + C[C@]1(c2nc3c(C(N)=O)cccc3[nH]2)CCCN1 [Veliparib] (first compound 0.004 µM, partner dose 1.4 µM)	31.3	98	101	80	103			85.4	100	221	109	42.6	91	151		70.4
C[As](C)SC[C@H](NC(=O)CC[C@H](N)C(=O)O)C(=O)NCC(=O)O [Darinaparsin] + COc1ccc(-c2ccc3c(N4CCOCC4)nc(N4C[C@@H](C)O[C@@H](C)C4)nc3n2)cc1CO [KU0063794] (first compound 0.4 µM, partner dose 0.02 µM)	171	106	129	93.4	162	198	66.2	241	61	116	107	78.2	94.2	92.5		
Cn1c(=O)n(-c2ccc(C(C)(C)C#N)cc2)c2c3cc(-c4cnc5ccccc5c4)ccc3ncc21 + N.N.[Cl][Pt][Cl] [cisplatin] (first compound 0.004 µM, partner dose 1.6 µM)	65	103	113	191	51.4			150	89.4	120	89.8	89	99.3	86.2		
Cn1c(Nc2ccc(C(F)(F)F)cc2)nc2cc(Oc3ccnc(-c4ncc(C(F)(F)F)[nH]4)c3)ccc21 + O=C(Oc1ccc([N+](=O)[O-])cc1)N1CCC(C(O)(c2ccc3c(c2)OCO3)c2ccc3c(c2)OCO3)CC1 [JZL184] (first compound 0.08 µM, partner dose 1 µM)	153	132	59.7	266	28.9	81.2	1340	523	135	109	130	205	153	328		
COc1ccc(COc2ccc(Cc3cnc(N)nc3N)cc2OC)cc1 + O=C(Oc1ccc([N+](=O)[O-])cc1)N1CCC(C(O)(c2ccc3c(c2)OCO3)c2ccc3c(c2)OCO3)CC1 [JZL184] (first compound 1 µM, partner dose 1 µM)	206	81.3	97.2	115	25.8	63.3	155	370	167	104	94.7	73	68.3	127		
N.N.[Cl][Pt][Cl] [cisplatin] + O=C(Oc1ccc([N+](=O)[O-])cc1)N1CCC(C(O)(c2ccc3c(c2)OCO3)c2ccc3c(c2)OCO3)CC1 [JZL184] (first compound 1.6 µM, partner dose 1 µM)	76.1	1420	63.3	150	82.1	78.6	45.9	129	199	217	91.2	54.3	88.8	72.6		
Cn1cc(C2=C(c3cn(C4CCN(Cc5ccccn5)CC4)c4ccccc34)C(=O)NC2=O)c2ccccc21 [Enzastaurin] + CC(=O)O[C@@]12CO[C@@H]1C[C@H](O)[C@@]1(C)C(=O)[C@H](O)C3=C(C)[C@@H](OC(=O)[C@H](O)[C@@H](NC(=O)OC(C)(C)C)c4ccccc4)C[C@@](O)([C@@H](OC(=O)c4ccccc4)[C@H]21)C3(C)C [Docetaxel] (first compound 0.8 µM, partner dose 0.0001 µM)	611	232	84.6	167	349			337	190	192	179	729	133	56		
Cc1ccc(NC(=O)c2cccc(N(C)C)c2)cc1NC(=O)c1ccc(O)cc1 + Cc1cc(SCc2sc(-c3ccc(C(F)(F)F)c(F)c3)nc2C)ccc1OCC(=O)O [GW0742] (first compound 2 µM, partner dose 2 µM)	165	44.5	46	75.9	124	42.9	153	32.2	121	51.1	117	68	88.2	197		
C[C@]12O[C@H](C[C@]1(O)CO)n1c3ccccc3c3c4c(c5c6ccccc6n2c5c31)CNC4=O [Lestaurtinib] + Cn1c(Nc2ccc(C(F)(F)F)cc2)nc2cc(Oc3ccnc(-c4ncc(C(F)(F)F)[nH]4)c3)ccc21 [CHIR265] (first compound 0.004 µM, partner dose 0.08 µM)	138	57.9	174	97.3	199			129	401	66	126	229	110	146		

Part of the list above, reformatted:
Structure (SMILES),cleaved PARP positive nuclei fraction (MeWo) [%],cleaved PARP positive nuclei fraction (RPMI7951) [%],cleaved PARP positive nuclei fraction (RVH-421) [%],cleaved PARP positive nuclei fraction (SkMel28) [%],cleaved PARP positive nuclei fraction (SkMel30) [%],cleaved PARP positive nuclei fraction (SkMel5) [%],cleaved PARP positive nuclei fraction (UACC257) [%],cleaved PARP positive nuclei fraction (UACC62) [%],cleaved PARP positive nuclei fraction (WM115) [%],cleaved PARP positive nuclei fraction (WM1716) [%],cleaved PARP positive nuclei fraction (WM1745) [%],cleaved PARP positive nuclei fraction (WM3526) [%],cleaved PARP positive nuclei fraction (WM3619) [%],cleaved PARP positive nuclei fraction (WM451Lu) [%],cleaved PARP positive nuclei fraction (SkMel2) [%],cleaved PARP positive nuclei fraction (MZ2-MEL) [%]
"Cc1cc(Nc2cc(N3CCN(C)CC3)nc(Sc3ccc(NC(=O)C4CC4)cc3)n2)n[nH]1 [Tozasertib] + Cc1cc(SCc2sc(-c3ccc(C(F)(F)F)c(F)c3)nc2C)ccc1OCC(=O)O [GW0742] (first compound 0.006 µM, partner dose 2 µM)",44,130,57.5,189,87.5,144,93.3,126,158,74,232,51.9,118,59.4,,
"N.N.[Cl][Pt][Cl] [cisplatin] + O=C(O)c1ccc(-c2c[nH]c3ncc(-c4ccccc4)cc23)cc1C1CCCC1 [GSK650394] (first compound 1.6 µM, partner dose 0.16 µM)",77.6,76.8,52.8,86.5,73.2,194,79.1,73.2,106,85.2,91.1,365,126,493,66.2,
